Data: patent US20070111939A1
No constants are given. Whether binding was seen depends on the method and setting. Some binding calls cover weakened binding; strength is not graded here. Where a sequence is shown, tags or fusion partners need not be part of it.

Key:
[1] = molecular target: T1, recombinant human IL-11 (human) (UniProt P20809); assay: ELISA (FIG. 4)
T1 sequence (looked up): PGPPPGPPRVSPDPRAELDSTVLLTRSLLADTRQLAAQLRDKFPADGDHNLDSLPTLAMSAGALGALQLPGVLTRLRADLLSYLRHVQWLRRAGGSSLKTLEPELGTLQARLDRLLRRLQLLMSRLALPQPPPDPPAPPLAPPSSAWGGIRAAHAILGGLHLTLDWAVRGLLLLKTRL

[2] = molecular target: T1, recombinant human IL-11 (human); assay: ELISA, IL-11 coated plate, detection with protein A-HRP, absorbance at 490 nm
[3] = molecular target: T1, recombinant human IL-11 (human); assay: competition ELISA, fusion protein preincubated with excess soluble IL-11 before addition to IL-11 coated plate

Measured: binding

B1: IL-11R-Ig fusion protein (Fc fusion, not shown: small tags and cut ends)
chain: SPCPQAWGPPGVQYGQPGRSVKLCCPGVTAGDPVSWFRDGEPKLLQGPDSGLGHELVLAQADSTDEGTYICQTLDGALGGTVTLQLGYPPARPVVSCQAADYENFSCTWSPSQISGLPTRYLTSYRKKTVLGADSQRRSPSTGPWPCPQDPLGAARCVVHGAEFWSQYRINVTEVNPLGASTRLLDVSLQSILRPDPPQGLRVESVPGYPRRLRASWTYPASWPCQPHFLLKFRLQYRPAQHPAWSTVEPAGLEEVITDAVAGLPHAVRVSARDFLDAGTWSTWSPEAWGTPSTGTIPKEIPAWGQLHTQPEVEPQVDSPAPPRPSLQPHPRLLDHRDSVEQ
binds: [1] | [2] | [3]
